# Results are given in words; binding and its absence hold for the method and conditions named. Binding seen in cells or lysates may run through a third protein. These calls come from enrichment with a bait or labelling near it, and not all partners need be listed. For some assays here: No binding means not detected with the bait.
# Sequences of proteins named here, by UniProt entry; tags and fusion partners are left off.
# UniProt P46379: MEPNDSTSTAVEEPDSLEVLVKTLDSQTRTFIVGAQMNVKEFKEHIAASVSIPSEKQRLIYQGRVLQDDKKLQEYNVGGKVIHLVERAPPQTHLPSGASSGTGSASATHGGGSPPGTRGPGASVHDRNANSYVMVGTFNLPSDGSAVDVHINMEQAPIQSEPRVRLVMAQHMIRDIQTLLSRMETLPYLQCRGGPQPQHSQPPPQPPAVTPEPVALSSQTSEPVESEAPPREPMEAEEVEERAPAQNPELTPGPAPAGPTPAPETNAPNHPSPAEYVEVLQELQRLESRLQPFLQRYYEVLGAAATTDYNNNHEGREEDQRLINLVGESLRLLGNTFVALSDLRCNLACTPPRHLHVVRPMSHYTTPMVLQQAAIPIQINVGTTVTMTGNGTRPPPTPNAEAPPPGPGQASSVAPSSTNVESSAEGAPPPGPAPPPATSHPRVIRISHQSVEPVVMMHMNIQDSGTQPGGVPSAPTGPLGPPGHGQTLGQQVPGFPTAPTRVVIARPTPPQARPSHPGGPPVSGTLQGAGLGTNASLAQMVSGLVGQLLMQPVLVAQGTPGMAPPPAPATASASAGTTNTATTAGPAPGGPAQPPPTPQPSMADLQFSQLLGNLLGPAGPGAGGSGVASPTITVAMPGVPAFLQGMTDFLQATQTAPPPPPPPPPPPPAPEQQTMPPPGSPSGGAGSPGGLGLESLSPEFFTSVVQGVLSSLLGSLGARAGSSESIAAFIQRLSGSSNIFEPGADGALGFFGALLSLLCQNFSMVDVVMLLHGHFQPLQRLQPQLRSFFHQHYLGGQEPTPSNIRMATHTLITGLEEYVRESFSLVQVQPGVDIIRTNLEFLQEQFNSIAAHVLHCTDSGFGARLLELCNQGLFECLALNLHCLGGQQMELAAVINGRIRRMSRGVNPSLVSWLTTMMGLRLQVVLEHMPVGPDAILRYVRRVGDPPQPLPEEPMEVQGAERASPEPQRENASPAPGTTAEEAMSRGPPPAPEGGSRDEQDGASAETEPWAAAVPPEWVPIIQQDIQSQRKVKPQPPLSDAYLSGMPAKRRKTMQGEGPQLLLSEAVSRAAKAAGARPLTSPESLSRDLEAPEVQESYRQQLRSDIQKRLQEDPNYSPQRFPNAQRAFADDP
# UniProt Q01484: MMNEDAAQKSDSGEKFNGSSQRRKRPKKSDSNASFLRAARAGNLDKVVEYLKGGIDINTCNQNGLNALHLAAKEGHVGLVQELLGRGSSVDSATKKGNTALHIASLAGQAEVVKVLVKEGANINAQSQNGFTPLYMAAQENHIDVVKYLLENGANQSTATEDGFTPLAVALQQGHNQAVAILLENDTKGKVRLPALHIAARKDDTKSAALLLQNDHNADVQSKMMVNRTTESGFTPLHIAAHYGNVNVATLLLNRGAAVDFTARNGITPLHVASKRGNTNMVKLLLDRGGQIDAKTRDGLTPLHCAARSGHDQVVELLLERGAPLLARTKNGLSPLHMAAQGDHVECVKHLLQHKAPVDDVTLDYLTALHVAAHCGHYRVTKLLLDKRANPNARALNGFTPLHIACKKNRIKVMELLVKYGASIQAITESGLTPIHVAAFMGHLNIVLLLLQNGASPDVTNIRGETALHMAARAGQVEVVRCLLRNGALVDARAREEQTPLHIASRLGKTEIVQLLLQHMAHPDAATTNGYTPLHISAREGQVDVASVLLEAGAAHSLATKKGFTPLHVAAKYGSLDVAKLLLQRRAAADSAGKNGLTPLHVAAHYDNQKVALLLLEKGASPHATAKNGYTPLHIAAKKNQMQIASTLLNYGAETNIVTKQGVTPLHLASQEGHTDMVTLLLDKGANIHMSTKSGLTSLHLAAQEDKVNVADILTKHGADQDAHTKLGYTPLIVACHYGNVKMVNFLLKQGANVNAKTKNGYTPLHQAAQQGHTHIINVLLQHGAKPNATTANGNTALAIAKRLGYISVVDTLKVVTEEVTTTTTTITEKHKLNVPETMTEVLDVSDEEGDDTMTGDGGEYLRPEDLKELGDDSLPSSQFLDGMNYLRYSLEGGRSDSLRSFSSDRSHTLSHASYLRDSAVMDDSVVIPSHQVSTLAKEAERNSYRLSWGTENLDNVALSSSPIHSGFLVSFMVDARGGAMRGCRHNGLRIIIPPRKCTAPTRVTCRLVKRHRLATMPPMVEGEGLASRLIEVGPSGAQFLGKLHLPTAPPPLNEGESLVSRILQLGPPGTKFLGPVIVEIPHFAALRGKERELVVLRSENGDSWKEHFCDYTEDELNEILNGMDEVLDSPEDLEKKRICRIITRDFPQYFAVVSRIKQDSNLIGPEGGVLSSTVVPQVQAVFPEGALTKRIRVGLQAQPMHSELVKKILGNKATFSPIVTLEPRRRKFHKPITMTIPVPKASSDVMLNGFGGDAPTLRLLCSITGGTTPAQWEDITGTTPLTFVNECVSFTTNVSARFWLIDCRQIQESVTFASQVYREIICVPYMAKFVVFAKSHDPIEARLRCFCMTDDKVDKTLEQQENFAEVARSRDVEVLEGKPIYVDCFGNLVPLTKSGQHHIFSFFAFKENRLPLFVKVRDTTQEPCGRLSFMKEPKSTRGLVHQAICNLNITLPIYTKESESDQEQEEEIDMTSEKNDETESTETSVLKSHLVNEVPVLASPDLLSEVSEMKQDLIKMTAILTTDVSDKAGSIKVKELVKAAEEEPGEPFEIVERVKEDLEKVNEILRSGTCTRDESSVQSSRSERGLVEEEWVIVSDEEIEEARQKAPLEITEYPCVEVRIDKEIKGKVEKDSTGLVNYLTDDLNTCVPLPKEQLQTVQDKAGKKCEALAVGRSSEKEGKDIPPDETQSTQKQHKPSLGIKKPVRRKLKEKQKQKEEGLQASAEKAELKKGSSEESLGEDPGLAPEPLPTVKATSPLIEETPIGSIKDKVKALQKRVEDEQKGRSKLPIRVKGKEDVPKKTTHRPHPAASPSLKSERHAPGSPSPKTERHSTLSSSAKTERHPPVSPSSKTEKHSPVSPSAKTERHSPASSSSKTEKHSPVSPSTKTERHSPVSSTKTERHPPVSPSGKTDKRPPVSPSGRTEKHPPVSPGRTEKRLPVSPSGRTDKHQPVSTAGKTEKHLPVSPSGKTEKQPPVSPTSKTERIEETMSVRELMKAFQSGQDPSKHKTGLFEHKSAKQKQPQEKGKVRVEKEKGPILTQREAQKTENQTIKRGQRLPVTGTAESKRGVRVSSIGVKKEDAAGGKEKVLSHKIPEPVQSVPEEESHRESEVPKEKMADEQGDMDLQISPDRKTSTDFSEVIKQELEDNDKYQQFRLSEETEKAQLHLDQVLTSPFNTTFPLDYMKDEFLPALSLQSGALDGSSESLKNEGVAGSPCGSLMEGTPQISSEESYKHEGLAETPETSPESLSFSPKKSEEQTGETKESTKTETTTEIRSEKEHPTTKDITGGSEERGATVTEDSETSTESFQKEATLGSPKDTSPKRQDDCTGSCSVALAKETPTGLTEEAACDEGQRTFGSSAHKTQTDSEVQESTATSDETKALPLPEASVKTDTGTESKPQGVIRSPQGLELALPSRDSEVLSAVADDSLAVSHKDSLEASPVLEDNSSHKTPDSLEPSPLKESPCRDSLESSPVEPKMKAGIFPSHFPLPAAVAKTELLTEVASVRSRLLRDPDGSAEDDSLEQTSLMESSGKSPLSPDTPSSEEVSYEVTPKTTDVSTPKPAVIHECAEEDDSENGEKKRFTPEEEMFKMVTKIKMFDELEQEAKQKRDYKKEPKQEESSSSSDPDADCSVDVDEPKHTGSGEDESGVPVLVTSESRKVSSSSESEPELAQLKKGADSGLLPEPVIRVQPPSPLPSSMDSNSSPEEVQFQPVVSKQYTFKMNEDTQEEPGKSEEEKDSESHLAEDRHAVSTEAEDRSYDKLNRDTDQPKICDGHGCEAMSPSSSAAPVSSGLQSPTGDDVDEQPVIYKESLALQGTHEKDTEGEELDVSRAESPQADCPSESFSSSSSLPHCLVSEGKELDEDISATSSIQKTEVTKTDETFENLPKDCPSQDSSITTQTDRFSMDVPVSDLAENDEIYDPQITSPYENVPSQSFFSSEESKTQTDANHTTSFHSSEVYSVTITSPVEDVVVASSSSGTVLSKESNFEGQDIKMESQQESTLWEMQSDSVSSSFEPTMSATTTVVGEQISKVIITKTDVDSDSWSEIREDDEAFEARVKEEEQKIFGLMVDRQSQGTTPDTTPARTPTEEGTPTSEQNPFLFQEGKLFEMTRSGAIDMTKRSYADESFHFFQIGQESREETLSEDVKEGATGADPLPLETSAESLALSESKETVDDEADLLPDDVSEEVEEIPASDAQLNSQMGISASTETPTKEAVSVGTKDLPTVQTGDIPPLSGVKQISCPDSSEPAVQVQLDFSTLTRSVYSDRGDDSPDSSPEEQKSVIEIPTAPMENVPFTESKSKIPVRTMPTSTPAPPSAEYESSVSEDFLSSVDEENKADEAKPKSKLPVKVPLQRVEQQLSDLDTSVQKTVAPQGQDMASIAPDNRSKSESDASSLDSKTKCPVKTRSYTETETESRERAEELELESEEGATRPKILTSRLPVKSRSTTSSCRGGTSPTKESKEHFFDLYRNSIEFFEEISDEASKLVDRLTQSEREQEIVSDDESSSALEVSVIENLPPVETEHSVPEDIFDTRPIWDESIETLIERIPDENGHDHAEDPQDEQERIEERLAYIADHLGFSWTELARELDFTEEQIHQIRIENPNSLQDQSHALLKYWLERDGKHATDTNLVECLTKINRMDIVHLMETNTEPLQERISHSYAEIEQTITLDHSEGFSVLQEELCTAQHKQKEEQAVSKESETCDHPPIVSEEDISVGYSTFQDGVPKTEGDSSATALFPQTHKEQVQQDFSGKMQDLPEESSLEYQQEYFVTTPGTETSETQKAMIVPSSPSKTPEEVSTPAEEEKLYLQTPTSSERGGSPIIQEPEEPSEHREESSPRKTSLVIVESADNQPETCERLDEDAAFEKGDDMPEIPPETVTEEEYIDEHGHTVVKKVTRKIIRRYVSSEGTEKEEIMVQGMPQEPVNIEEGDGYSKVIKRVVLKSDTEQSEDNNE
# UniProt Q8N0U8: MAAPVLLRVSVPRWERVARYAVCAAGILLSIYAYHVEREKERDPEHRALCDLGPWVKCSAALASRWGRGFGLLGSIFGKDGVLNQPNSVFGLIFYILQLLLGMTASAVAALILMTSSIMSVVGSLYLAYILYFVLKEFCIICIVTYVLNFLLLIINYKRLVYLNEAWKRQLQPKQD
# UniProt Q07812: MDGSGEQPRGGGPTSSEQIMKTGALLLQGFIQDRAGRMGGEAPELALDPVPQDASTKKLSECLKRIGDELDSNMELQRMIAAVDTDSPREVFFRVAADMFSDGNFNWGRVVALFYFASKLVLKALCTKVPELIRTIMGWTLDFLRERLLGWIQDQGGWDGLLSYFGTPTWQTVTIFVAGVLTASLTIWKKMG
# Experiments:
# [1] = biological target: Ubiquilin-2 4XALS (P497H, P506T, P509S, P525S) (human (endogenous in iPSCs and iMNs)) (UniProt Q9UHD9); assay: affinity purification with mass spectrometry; endogenous UBQLN2 immunoprecipitated with UBQLN2 antibodies and Dynabeads Protein G from the soluble fraction (1% CHAPS buffer) of iMNs; label-free quantitative MS
# [2] = biological target: Ubiquilin-2 4XALS (P497H, P506T, P509S, P525S) (human (endogenous in iPSCs and iMNs)) (UniProt Q9UHD9); assay: affinity purification with mass spectrometry; endogenous UBQLN2 immunoprecipitated with UBQLN2 antibodies and Dynabeads Protein G from the soluble fraction (1% CHAPS buffer) of iPSCs, basal or after heat stress (42 °C, 1 h); label-free quantitative MS; UBQLN2^I498X cells as control
# [3] = biological target: Ubiquilin-2, wild type (human (endogenous in iPSCs and iMNs)) (UniProt Q9UHD9); assay: as above
# [4] = biological target: Ubiquilin-2, wild type (human (endogenous in iPSCs and iMNs)) (UniProt Q9UHD9); assay: affinity purification with mass spectrometry; endogenous UBQLN2 immunoprecipitated with UBQLN2 antibodies and Dynabeads Protein G from the soluble fraction (1% CHAPS buffer) of iMNs; label-free quantitative MS
# [5] = biological target: Ubiquilin-2, wild type (human (endogenous in iPSCs and iMNs)) (UniProt Q9UHD9); assay: affinity purification with mass spectrometry; as a1, iPSCs after heat stress (42 °C, 1 h) only
# [6] = biological target: Ubiquilin-2 4XALS (P497H, P506T, P509S, P525S) (human (endogenous in iPSCs and iMNs)) (UniProt Q9UHD9); assay: affinity purification with mass spectrometry; endogenous UBQLN2 immunoprecipitated with UBQLN2 antibodies and Dynabeads Protein G from the soluble fraction (1% CHAPS buffer) of iPSCs, basal or after heat stress (42 °C, 1 h); label-free quantitative MS; UBQLN2^I498X cells as control; remark: listed apart in the source
# [7] = biological target: Ubiquilin-2, wild type (human (endogenous in iPSCs and iMNs)) (UniProt Q9UHD9); assay: as above; remark: listed apart in the source
# [8] = biological target: Ubiquilin-2 P497H (human (endogenous in iPSCs and iMNs)) (UniProt Q9UHD9); assay: as above
# [9] = biological target: Ubiquilin-2 P497H (human (endogenous in iPSCs and iMNs)) (UniProt Q9UHD9); assay: affinity purification with mass spectrometry; endogenous UBQLN2 immunoprecipitated with UBQLN2 antibodies and Dynabeads Protein G from the soluble fraction (1% CHAPS buffer) of iMNs; label-free quantitative MS
molecule,measurement,setting,value
BCL2-associated athanogene 6 (from UniProt P46379 1-1132),binding,[1],binds
same,binding,[2],binds
VKORC1 (from UniProt Q9BQB6 1-163),binding,[3],binds
ANK2 (from UniProt Q01484 1-3957),binding,[2],binds
VKORC1L1 (from UniProt Q8N0U8 1-176),binding,[3],binds
BAX (from UniProt Q07812 1-192),binding,[4],binds
"BTBD2 (protein, UniProt Q9BX70 1-525) MAAGGSGGRASCPPGVGVGPGTGGSPGPSANAAATPAPGNAAAAAAAAAAAAAAPGPTPPAPPGPGTDAQAAGAERAEEAAGPGAAALQREAAYNWQASKPTVQERFAFLFNNEVLCDVHFLVGKGLSSQRIPAHRFVLAVGSAVFDAMFNGGMATTSTEIELPDVEPAAFLALLKFLYSDEVQIGPETVMTTLYTAKKYAVPALEAHCVEFLKKNLRADNAFMLLTQARLFDEPQLASLCLENIDKNTADAITAEGFTDIDLDTLVAVLERDTLGIREVRLFNAVVRWSEAECQRQQLQVTPENRRKVLGKALGLIRFPLMTIEEFAAGPAQSGILVDREVVSLFLHFTVNPKPRVEFIDRPRCCLRGKECSINRFQQVESRWGYSGTSDRIRFSVNKRIFVVGFGLYGSIHGPTDYQVNIQIIHTDSNTVLGQNDTGFSCDGSASTFRVMFKEPVEVLPNVNYTACATLKGPDSHYGTKGLRKVTHESPTTGAKTCFTFCYAAGNNNGTSVEDGQIPEVIFYT",binding,[1],binds
"FAM168A (protein, UniProt Q92567 1-244) MNPVYSPVQPGAPYGNPKNMAYTGYPTAYPAAAPAYNPSLYPTNSPSYAPEFQFLHSAYATLLMKQAWPQNSSSCGTEGTFHLPVDTGTENRTYQASSAAFRYTAGTPYKVPPTQSNTAPPPYSPSPNPYQTAMYPIRSAYPQQNLYAQGAYYTQPVYAAQPHVIHHTTVVQPNSIPSAIYPAPVAAPRTNGVAMGMVAGTTMAMSAGTLLTTPQHTAIGAHPVSMPTYRAQGTPAYSYVPPHW",binding,[1],binds
"HYOU1 (protein, UniProt Q9Y4L1 33-999) LAVMSVDLGSESMKVAIVKPGVPMEIVLNKESRRKTPVIVTLKENERFFGDSAASMAIKNPKATLRYFQHLLGKQADNPHVALYQARFPEHELTFDPQRQTVHFQISSQLQFSPEEVLGMVLNYSRSLAEDFAEQPIKDAVITVPVFFNQAERRAVLQAARMAGLKVLQLINDNTATALSYGVFRRKDINTTAQNIMFYDMGSGSTVCTIVTYQMVKTKEAGMQPQLQIRGVGFDRTLGGLEMELRLRERLAGLFNEQRKGQRAKDVRENPRAMAKLLREANRLKTVLSANADHMAQIEGLMDDVDFKAKVTRVEFEELCADLFERVPGPVQQALQSAEMSLDEIEQVILVGGATRVPRVQEVLLKAVGKEELGKNINADEAAAMGAVYQAAALSKAFKVKPFVVRDAVVYPILVEFTREVEEEPGIHSLKHNKRVLFSRMGPYPQRKVITFNRYSHDFNFHINYGDLGFLGPEDLRVFGSQNLTTVKLKGVGDSFKKYPDYESKGIKAHFNLDESGVLSLDRVESVFETLVEDSAEEESTLTKLGNTISSLFGGGTTPDAKENGTDTVQEEEESPAEGSKDEPGEQVELKEEAEAPVEDGSQPPPPEPKGDATPEGEKATEKENGDKSEAQKPSEKAEAGPEGVAPAPEGEKKQKPARKRRMVEEIGVELVVLDLPDLPEDKLAQSVQKLQDLTLRDLEKQEREKAANSLEAFIFETQDKLYQPEYQEVSTEEQREEISGKLSAASTWLEDEGVGATTVMLKEKLAELRKLCQGLFFRVEERKKWPERLSALDNLLNHSSMFLKGARLIPEMDQIFTEVEMTTLEKVINETWAWKNATLAEQAKLPATEKPVLLSKDIEAKMMALDREVQYLLNKAKFTKPRPRPKDKNGTRAEPPLNASASDQGEKVIPPAGQTEDAEPISEPEKVETGSEPGDTEPLELGGPGAEPEQKEQSTGQKRPLKNDEL",binding,[5],"no binding (only after heat stress (42 °C, 1 h))"
same,binding,[6],binds
same,binding,[7],binds
same,binding,[8],binds
"paternally expressed gene 10 (protein, UniProt Q86TG7 1-708) MTERRRDELSEEINNLREKVMKQSEENNNLQSQVQKLTEENTTLREQVEPTPEDEDDDIELRGAAAAAAPPPPIEEECPEDLPEKFDGNPDMLAPFMAQCQIFMEKSTRDFSVDRVRVCFVTSMMTGRAARWASAKLERSHYLMHNYPAFMMEMKHVFEDPQRREVAKRKIRRLRQGMGSVIDYSNAFQMIAQDLDWNEPALIDQYHEGLSDHIQEELSHLEVAKSLSALIGQCIHIERRLARAAAARKPRSPPRALVLPHIASHHQVDPTEPVGGARMRLTQEEKERRRKLNLCLYCGTGGHYADNCPAKASKSSPAGKLPGPAVEGPSATGPEIIRSPQDDASSPHLQVMLQIHLPGRHTLFVRAMIDSGASGNFIDHEYVAQNGIPLRIKDWPILVEAIDGRPIASGPVVHETHDLIVDLGDHREVLSFDVTQSPFFPVVLGVRWLSTHDPNITWSTRSIVFDSEYCRYHCRMYSPIPPSLPPPAPQPPLYYPVDGYRVYQPVRYYYVQNVYTPVDEHVYPDHRLVDPHIEMIPGAHSIPSGHVYSLSEPEMAALRDFVARNVKDGLITPTIAPNGAQVLQVKRGWKLQVSYDCRAPNNFTIQNQYPRLSIPNLEDQAHLATYTEFVPQIPGYQTYPTYAAYPTYPVGFAWYPVGRDGQGRSLYVPVMITWNPHWYRQPPVPQYPPPQPPPPPPPPPPPPSYSTL",binding,[6],binds
"UBL4A (protein, UniProt P11441 1-157) MQLTVKALQGRECSLQVPEDELVSTLKQLVSEKLNVPVRQQRLLFKGKALADGKRLSDYSIGPNSKLNLVVKPLEKVLLEEGEAQRLADSPPPQVWQLISKVLARHFSAADASRVLEQLQRDYERSLSRLTLDDIERLASRFLHPEVTETMEKGFSK",binding,[1],no binding
same,binding,[9],no binding
same,binding,[6],no binding
same,binding,[8],no binding
